Results are given in words; binding and its absence hold for the method and conditions named. In cells and extracts the contact can be indirect. A result given as binding can be weak or reduced; the word gives no strength.

Data on 1 substance can be found in paper PMC8481818.

Assay [1] addresses T1, E3 ubiquitin ligase MARCH1 (human (endogenous in HepG2)) (UniProt Q8TCQ1).
T1 sequence: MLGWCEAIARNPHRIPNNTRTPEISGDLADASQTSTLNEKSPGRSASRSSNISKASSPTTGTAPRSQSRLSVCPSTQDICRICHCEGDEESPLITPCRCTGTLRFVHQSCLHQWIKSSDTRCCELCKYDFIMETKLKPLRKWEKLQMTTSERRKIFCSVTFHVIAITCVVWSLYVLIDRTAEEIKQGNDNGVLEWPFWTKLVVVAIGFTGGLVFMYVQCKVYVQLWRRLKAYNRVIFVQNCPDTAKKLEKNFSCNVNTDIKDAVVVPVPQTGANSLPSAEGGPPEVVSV
In words: co-IP; HepG2 cells lysed by RIPA; lysates incubated with anti-USP4 or anti-MARCH1 antibody and Protein A agarose beads; insulin receptor in the precipitate detected by Western blot; cells treated as control, Dex, or Dex + gastrodin 100 uM, all with MG132. (A western blot detects proteins with antibodies after separation by electrophoresis.)

For assay [2], the target named is T2, ubiquitin-specific protease 4 (human (endogenous in HepG2)) (UniProt Q13107).
T2 sequence: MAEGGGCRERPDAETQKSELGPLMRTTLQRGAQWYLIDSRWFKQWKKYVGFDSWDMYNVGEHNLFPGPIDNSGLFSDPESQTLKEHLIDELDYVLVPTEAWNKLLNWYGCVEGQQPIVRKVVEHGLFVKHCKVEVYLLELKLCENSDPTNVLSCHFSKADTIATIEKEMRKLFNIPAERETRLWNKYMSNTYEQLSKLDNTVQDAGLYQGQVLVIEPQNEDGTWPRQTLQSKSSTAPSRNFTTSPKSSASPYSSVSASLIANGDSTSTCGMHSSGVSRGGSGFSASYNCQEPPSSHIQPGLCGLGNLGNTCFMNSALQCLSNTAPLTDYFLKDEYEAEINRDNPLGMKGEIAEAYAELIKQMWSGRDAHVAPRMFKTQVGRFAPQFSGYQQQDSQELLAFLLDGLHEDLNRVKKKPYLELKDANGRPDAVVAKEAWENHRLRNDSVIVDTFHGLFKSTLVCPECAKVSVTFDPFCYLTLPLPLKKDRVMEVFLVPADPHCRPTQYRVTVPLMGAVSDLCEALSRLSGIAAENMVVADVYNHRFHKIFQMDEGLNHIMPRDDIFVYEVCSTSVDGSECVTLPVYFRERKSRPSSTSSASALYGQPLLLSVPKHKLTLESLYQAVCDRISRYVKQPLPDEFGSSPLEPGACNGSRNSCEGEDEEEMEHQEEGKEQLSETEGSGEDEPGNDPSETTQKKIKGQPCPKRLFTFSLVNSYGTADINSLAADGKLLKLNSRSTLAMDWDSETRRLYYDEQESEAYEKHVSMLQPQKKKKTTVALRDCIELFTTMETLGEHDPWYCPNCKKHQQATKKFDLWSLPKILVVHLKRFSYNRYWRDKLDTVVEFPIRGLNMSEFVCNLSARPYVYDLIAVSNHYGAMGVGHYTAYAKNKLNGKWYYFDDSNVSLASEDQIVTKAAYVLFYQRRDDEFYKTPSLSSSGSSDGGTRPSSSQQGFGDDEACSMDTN
Described as above.

In the case of “insulin receptor (human (endogenous in HepG2))”, the binding result in assay [1] and in assay [2] was “binds” throughout.
